Test results taken from the supplement of paper PMC10849652.
The list shows a part of the results.

Sequences of proteins named here, by UniProt entry; tags and fusion partners are left off. A change or cut given only in a name is not applied to a line headed by its entry.
UniProt Q96I23: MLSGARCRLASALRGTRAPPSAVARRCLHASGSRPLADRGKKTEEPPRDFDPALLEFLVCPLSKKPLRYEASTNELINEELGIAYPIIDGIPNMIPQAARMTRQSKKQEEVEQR
UniProt Q96S21: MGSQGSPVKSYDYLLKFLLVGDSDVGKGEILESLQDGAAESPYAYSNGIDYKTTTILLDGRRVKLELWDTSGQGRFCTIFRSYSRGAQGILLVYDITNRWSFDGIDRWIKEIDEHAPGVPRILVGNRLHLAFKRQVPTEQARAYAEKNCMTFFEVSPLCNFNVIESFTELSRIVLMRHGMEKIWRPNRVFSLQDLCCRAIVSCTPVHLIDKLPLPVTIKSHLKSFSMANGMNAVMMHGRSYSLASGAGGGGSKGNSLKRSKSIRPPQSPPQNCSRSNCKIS
UniProt Q6VN20, whole entry, looked up: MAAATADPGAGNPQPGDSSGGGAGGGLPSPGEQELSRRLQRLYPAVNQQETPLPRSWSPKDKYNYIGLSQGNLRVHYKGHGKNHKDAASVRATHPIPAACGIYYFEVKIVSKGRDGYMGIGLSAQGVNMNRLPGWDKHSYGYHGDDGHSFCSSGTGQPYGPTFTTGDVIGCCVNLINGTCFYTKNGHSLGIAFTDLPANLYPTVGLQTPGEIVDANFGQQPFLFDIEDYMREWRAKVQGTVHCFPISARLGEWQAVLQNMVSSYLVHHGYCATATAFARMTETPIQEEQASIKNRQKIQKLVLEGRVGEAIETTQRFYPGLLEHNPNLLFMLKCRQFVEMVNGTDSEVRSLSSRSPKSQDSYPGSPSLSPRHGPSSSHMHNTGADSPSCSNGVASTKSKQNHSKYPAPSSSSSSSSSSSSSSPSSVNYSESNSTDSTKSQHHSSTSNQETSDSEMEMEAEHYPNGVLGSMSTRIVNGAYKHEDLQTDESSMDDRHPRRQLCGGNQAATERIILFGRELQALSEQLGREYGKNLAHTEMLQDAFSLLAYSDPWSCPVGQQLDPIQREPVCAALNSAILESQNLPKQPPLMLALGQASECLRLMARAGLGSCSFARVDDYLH
UniProt P11233: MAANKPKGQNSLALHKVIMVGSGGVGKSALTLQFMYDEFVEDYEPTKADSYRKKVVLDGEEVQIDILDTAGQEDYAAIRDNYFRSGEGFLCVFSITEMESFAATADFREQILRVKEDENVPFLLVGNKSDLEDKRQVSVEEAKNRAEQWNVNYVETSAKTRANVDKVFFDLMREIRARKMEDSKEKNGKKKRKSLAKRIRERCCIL
UniProt P61020: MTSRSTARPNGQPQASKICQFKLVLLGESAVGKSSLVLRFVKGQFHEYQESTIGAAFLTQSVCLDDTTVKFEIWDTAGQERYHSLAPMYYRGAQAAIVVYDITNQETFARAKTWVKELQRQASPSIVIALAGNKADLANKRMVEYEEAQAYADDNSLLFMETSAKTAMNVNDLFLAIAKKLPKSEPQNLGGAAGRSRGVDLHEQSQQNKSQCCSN
UniProt P51159: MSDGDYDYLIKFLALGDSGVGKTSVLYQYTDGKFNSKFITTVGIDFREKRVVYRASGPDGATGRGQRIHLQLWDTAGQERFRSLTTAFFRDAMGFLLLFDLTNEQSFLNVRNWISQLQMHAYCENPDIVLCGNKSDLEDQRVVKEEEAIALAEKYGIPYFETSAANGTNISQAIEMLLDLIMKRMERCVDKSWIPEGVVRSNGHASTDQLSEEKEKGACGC
UniProt Q8WUD1: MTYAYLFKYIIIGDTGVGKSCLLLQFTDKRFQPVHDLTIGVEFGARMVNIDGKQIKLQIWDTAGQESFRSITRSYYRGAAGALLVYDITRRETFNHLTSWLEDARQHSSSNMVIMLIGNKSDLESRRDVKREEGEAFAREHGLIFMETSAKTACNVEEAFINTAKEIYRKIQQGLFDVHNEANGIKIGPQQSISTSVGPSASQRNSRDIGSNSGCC
UniProt Q9H2T7: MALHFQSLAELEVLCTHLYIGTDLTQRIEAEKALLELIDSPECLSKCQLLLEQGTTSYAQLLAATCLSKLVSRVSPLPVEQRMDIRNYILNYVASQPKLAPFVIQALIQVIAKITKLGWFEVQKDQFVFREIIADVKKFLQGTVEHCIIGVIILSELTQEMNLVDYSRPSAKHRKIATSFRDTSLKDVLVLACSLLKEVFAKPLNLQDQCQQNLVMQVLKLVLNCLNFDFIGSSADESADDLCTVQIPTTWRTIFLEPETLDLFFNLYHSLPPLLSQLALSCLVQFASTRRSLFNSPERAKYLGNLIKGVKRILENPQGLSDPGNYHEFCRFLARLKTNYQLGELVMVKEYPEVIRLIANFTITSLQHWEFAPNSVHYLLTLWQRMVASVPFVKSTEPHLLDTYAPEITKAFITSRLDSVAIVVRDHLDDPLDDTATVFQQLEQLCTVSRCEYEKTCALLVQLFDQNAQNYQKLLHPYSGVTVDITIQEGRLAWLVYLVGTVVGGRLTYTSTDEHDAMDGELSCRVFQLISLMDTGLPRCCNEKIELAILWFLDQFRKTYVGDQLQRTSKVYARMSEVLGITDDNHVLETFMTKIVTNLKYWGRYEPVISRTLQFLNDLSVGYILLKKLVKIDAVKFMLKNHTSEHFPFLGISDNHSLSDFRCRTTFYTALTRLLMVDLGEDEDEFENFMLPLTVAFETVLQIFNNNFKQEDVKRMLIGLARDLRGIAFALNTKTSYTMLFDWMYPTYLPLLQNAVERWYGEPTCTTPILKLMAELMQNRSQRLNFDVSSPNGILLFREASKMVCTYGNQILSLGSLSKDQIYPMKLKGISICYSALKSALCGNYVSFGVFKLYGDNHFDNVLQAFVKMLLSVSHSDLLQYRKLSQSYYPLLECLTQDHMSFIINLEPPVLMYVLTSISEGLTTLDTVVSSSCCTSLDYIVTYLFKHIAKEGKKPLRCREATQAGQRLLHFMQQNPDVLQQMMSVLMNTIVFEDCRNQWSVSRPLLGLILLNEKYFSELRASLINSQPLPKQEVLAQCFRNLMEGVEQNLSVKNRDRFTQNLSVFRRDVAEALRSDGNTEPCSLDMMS
UniProt Q969Q5: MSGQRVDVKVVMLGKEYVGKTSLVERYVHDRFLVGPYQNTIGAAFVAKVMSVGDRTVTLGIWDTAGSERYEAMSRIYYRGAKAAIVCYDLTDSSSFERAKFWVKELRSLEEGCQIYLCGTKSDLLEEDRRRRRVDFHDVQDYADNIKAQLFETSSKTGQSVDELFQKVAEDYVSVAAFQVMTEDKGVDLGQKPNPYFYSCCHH
UniProt Q9Y6I8: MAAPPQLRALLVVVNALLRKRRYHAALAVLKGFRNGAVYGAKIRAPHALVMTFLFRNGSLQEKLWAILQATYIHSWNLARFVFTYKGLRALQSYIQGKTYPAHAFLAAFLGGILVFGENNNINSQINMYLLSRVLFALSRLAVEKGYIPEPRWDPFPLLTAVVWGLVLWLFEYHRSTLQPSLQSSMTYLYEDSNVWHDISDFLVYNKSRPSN
UniProt Q99638: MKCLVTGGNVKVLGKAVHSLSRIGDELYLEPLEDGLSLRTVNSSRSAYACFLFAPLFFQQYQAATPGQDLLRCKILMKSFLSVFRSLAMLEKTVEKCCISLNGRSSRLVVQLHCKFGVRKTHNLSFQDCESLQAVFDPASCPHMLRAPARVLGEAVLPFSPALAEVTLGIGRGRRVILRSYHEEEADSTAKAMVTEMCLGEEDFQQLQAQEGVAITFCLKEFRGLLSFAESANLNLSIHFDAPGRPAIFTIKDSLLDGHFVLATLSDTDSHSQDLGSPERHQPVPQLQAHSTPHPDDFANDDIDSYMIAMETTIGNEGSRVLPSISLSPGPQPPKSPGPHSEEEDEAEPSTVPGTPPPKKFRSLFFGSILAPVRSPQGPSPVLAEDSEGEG
UniProt Q9UI14, whole entry, looked up: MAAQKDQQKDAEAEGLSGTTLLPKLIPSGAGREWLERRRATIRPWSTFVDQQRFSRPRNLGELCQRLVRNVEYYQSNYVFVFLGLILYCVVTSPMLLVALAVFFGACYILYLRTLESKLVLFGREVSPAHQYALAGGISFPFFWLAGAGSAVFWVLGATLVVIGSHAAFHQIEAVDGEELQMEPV
UniProt P52306: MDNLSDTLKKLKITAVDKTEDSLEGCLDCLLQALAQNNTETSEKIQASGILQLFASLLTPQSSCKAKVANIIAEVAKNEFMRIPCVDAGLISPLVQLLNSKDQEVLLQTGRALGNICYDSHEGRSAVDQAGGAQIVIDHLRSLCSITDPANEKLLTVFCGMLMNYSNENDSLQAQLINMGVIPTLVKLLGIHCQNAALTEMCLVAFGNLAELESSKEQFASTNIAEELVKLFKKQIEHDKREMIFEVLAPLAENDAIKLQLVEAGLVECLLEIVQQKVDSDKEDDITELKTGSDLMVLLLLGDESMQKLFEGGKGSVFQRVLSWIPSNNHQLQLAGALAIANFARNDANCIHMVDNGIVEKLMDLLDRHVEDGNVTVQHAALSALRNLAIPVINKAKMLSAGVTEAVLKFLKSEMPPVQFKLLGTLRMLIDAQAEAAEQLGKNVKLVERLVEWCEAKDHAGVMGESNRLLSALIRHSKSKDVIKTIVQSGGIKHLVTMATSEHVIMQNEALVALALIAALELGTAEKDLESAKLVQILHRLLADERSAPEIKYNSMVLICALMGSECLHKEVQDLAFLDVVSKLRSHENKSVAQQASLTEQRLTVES
UniProt P62491: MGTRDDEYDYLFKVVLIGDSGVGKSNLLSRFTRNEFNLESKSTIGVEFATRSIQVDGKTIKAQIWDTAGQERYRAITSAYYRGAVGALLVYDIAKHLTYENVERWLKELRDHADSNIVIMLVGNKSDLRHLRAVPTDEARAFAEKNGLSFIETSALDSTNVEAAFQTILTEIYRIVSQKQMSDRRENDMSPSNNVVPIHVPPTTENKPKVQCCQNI
UniProt Q9H6Z4: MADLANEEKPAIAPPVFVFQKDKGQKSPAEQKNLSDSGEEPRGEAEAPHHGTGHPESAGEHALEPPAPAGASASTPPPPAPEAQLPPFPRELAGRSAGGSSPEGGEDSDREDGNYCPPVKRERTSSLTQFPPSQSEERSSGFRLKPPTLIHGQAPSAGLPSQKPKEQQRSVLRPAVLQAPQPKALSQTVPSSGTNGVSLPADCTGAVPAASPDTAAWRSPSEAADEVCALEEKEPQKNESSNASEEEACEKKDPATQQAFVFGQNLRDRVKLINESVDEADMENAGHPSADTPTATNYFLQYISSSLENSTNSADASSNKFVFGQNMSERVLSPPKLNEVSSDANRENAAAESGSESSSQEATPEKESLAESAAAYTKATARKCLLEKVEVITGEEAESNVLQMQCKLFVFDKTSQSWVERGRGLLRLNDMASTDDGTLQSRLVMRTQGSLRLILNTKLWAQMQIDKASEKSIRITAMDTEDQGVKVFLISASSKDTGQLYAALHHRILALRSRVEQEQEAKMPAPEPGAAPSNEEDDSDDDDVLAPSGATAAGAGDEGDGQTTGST
UniProt P51149, whole entry, looked up: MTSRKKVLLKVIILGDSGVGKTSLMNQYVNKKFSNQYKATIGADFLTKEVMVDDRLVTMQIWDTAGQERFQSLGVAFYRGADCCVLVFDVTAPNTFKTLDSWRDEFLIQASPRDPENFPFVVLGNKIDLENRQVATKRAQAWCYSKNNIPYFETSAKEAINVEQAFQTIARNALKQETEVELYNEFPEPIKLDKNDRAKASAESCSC

Columns and labels:
Test in all cases: log2 fold change, soluble protein after heating vs DMSO (PISA); higher = thermal stabilisation; K562 lysate, 10 uM; active = over 0.2 and 3.5 SD of the protein, either way, in both replicates (recomputed)
[1] = compound: NCC(=O)Nc1ccc(-n2nc(C(F)(F)F)cc2-c2ccc3c(ccc4ccccc43)c2)cc1
In short: (§1)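 K562 pellets were dounce-homogenised in PBS pH 7.4 with 1 mM MgCl2, and the crude extract at 1 mg/mL protein was treated with 10 μM compound for 30 min. Aliquots were heated for 3 min across 48°C-58°C, pooled, and brought to 0.5% NP-40 at 4°C; soluble protein was the supernatant after 21,000xg for 90 min. Soluble protein was quantified by TMTpro 16plex LC-MS/MS with channel sums equalised, and reported as log2 fold change in thermal stability against DMSO controls, with values from duplicates.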

[2] = compound: O=C(CCCCCCC(=O)Nc1ccccc1)NO [vorinostat]
In short: as §1

[3] = compound: O=C(O)c1ccc2c(c1)nc(Nc1cccc(Cl)c1)c1ccncc12 [silmitasertib]
In short: as §1

[4] = compound: O=C1NC(=O)C(c2cnc3ccccn23)=C1c1cn2c3c(cc(F)cc13)CN(C(=O)N1CCCCC1)CC2
In short: as §1

[5] = compound: c1cn2cc(-c3ccc4cn[nH]c4c3)nc(Nc3ccc(N4CCOCC4)cc3)c2n1 [entospletinib]
In short: as §1

| Target | log2 fold change [1] | log2 fold change [2] | log2 fold change [3] | log2 fold change [4] | log2 fold change [5] |
| --- | --- | --- | --- | --- | --- |
| PYURF (UniProt Q96I23) | active: -0.346 | inactive: -0.007 | inactive: -0.001 | inactive: -0.055 | inactive: -0.048 |
| RAB40C (UniProt Q96S21) | inactive: 0.066 | inactive: 0.172 | inactive: -0.047 | inactive: -0.046 | inactive: 0.08 |
| RANBP10 (UniProt Q6VN20) | inactive: 0.002 | inactive: -0.066 | inactive: 0.068 | inactive: -0.037 | inactive: 0.012 |
| RALA (UniProt P11233) | inactive: 0.031 | inactive: 0.129 | inactive: -0.062 | inactive: 0 | inactive: -0.006 |
| RAB5B (UniProt P61020) | inactive: -0.029 | inactive: 0.086 | inactive: -0.074 | inactive: -0.023 | inactive: -0.001 |
| RAC3 (UniProt P60763) | inactive: -0.027 | inactive: 0.015 | inactive: -0.011 | inactive: 0.014 | inactive: 0.057 |
| RABGAP1L isoform 3 (UniProt Q5R372) | inactive: -0.005 | inactive: -0.191 | inactive: 0.032 | inactive: -0.028 | inactive: 0.013 |
| RAB27A (UniProt P51159) | inactive: -0.033 | inactive: -0.08 | inactive: 0.066 | inactive: -0.009 | inactive: 0.023 |
| RAB2B (UniProt Q8WUD1) | inactive: 0.029 | inactive: 0.126 | inactive: -0.003 | inactive: 0.004 | inactive: -0.019 |
| RANBP17 (UniProt Q9H2T7) | inactive: 0.031 | inactive: -0.192 | inactive: -0.075 | inactive: -0.019 | inactive: 0.03 |
| RAB24 (UniProt Q969Q5) | inactive: 0.067 | inactive: 0.096 | inactive: -0.009 | inactive: -0.008 | inactive: -0.014 |
| RABL6 (UniProt Q3YEC7) | inactive: -0.017 | inactive: 0.074 | inactive: -0.006 | inactive: -0.014 | inactive: -0.003 |
| RAD51B (UniProt O15315) | inactive: -0.101 | inactive: -0.256 | inactive: -0.019 | inactive: 0.091 | inactive: -0.073 |
| PYCR3 (UniProt Q53H96) | inactive: 0.036 | inactive: 0.054 | inactive: -0.019 | inactive: 0.053 | inactive: -0.001 |
| PYCR1 (UniProt J3QKT4) | inactive: 0.147 | inactive: 0.057 | inactive: -0.138 | inactive: -0.038 | inactive: 0.083 |
| RACK1 (UniProt P63244) | inactive: -0.022 | inactive: -0.007 | inactive: 0.011 | inactive: -0.011 | inactive: 0.027 |
| PXMP4 (UniProt Q9Y6I8) | inactive: 0.038 | inactive: 0.295 | inactive: 0.134 | inactive: 0.021 | inactive: -0.004 |
| RAD9A (UniProt Q99638) | inactive: 0.017 | inactive: 0.009 | inactive: 0.001 | inactive: -0.007 | inactive: 0 |
| RABAC1 (UniProt Q9UI14) | inactive: -0.028 | inactive: 0.025 | inactive: 0.042 | inactive: -0.042 | inactive: -0.007 |
| RAN (UniProt P62826) | inactive: 0.002 | inactive: 0.099 | inactive: -0.001 | inactive: -0.008 | inactive: -0.004 |
| RAP1GDS1 isoform 5 (UniProt P52306) | inactive: 0.004 | inactive: -0.157 | inactive: 0.026 | inactive: -0.049 | inactive: 0.003 |
| RAB11A (UniProt P62491) | inactive: 0.099 | inactive: 0.12 | inactive: 0.046 | inactive: 0.034 | inactive: 0.004 |
| RANBP3 (UniProt Q9H6Z4) | inactive: 0.027 | inactive: 0.087 | inactive: -0.021 | inactive: 0.009 | inactive: 0.031 |
| RAB7A (UniProt P51149) | inactive: 0.008 | inactive: 0.145 | inactive: 0.012 | inactive: -0.02 | inactive: -0.009 |

An excerpt of these results, with bars between the fields.
Target | log2 fold change [1] | log2 fold change [2] | log2 fold change [3] | log2 fold change [4] | log2 fold change [5]
RANBP17 (UniProt Q9H2T7) | inactive: 0.031 | inactive: -0.192 | inactive: -0.075 | inactive: -0.019 | inactive: 0.03
RAB24 (UniProt Q969Q5) | inactive: 0.067 | inactive: 0.096 | inactive: -0.009 | inactive: -0.008 | inactive: -0.014
